# Results from one PubChem assay

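Genome-wide siRNA knockdown in TC32 Ewing sarcoma cells, comparing luciferase light from an NR0B1-promoter reporter with a CMV-promoter reporter 48 hours after transfection. Each siRNA was applied at 20 nM. A z-score of the log NR0B1-over-CMV signal, less the median of siRNAs with the same seed; more negative means a stronger specific loss of the NR0B1 reporter.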

The strongest results of the screen are mostly left out here. Sequences are the guide (antisense) strand, without overhang.

Sequence,gene,seed-corrected z-score
UACUAUGUAAGUGCAACUG,LAGE3,0.9198
UACUAUACCAUGGUCGCAG,DKC1,1.232
UCUGGGAAAGGUUCGACUG,MSRA,-0.6176
UAUACUUAAUUGCAACUGG,GPAT3,-0.5627
UUUAUAGGCAAAGACAAUG,PLXDC1,0.4674
UCUCGAAAAGCUUAGACUC,CAMK1G,0.08477
UCAAUUGUUGUGAAUUACC,MAML2,-0.301
UUCACAUAGGUGGUCGUCC,MPPED1,0.8885
UCUGAUCACAUUAUUGGGC,SZRD1,0.1233
AAUGGUUCCCGAUAAUACC,GPR161,-0.7261
UUACGUUCAUGAUCCUUAG,GEN1,-0.2083
AAACUUGCAAGCUCGGUAG,LANCL2,-0.2872
UCAUGUUUAGCAAAGGUUG,LOC732272,0.04624
AUCUGGUUUAGUGAUCUUG,HAX1,-1.931
UUCAUAGCAAGGGAUCAGC,ITGA9,-0.1926
UUCUUUACUGCUCUUACUC,SLC39A9,-0.06488
AUAUAUGUGAUUAAACGUG,OR51B4,0.2935
UUUUCUGAGACUGGGCUCG,SRCIN1,-0.7224
AAAUAUUUCACUCUUAUCC,ZNF806,0.2807
UGUUAGCAGAUGUAACUCC,SLC38A1,-1.256
UUCAAGAUCAAACUAGGCC,C15orf54,-0.03422
UUCCAGAUUGUUCUCGUUG,CKAP4,0.1111
UCUUUGACAGGUCGUUUCC,PHAX,-1.25
UGAAUGUAAGUUUUCAUCU,GUSBP5,-0.2636
UCAUUGGUCAGAAUCUCCU,DNAJC12,0.7919
UCUUUCUUGACGAAGCGAC,KCNJ14,0.7535
UCUAUAAUCACUCAUCACG,SAT1,-0.3123
UCCUUGGCAUUCUAACCCG,LOC642648,0.002067
UAAUUUCGGAGUUUCUUAC,ZMAT3,-0.02481
UCUGGGAACACGUCAUCCU,CORO7,-0.1775
UUGUGAACAUCAUAGCUGC,STPG2,0.4504
UAUGCUUACGGAAAAACAC,ACYP1,0.455
AUUAUAAUUAUCUUGCUUG,ASCC3,0.4794
UAAGAGUUCCUACCAAUGC,ABRACL,-0.2991
UAUAUGACUCAGAACGAGC,LRBA,-0.9941
UAAGGAUAUACAAGGAGGG,ZNF436-AS1,-0.09468
UUUCGUCCAACUUACACUG,MS4A6E,0.2364
UCUCGGAUCACAUUCUCCU,TMX2,-0.278
UCAUAGAUAAACACCAGUC,PTPN9,-0.08149
UGAGUGACAGGGAAGGGAG,FOXI2,0.3526
AACGUGGUUAAGAAACUGC,IFI16,-0.8615
UUAGCAACUUCUGCGAUGC,PAPSS1,0.1838
AUCGUUACUAUUGCUCGGC,ZMIZ1,0.4654
AAACUUUUCAGCCUCUUCC,TTC7B,1.19
UCACUGACAUUGGAGUUGC,TAF9B,-0.8488
UGUAAAUUCUGAAACUCGC,SNX25,0.285
UUGAGUACGCUCUCGUUCU,SIX1,-0.1499
UCUGUUGCAGGUGAUAACG,STK32A,0.1118
AACAAGAUCAGCAGAUUCC,ERAL1,0.7351
GUAGUCACACGCUCAAAAA,CCDC107,0.3461
UCAAGUUGAAUGACCACAC,ZNF324B,-0.2808
UCAGGUGCAAGGCUGGUGU,NCR1,-1.354
AUUCCAAUGAAGGUUGUUC,ZC3HC1,0.3102

The first 6 entries again:

Sequence	gene	seed-corrected z-score
UACUAUGUAAGUGCAACUG	LAGE3	0.9198
UACUAUACCAUGGUCGCAG	DKC1	1.232
UCUGGGAAAGGUUCGACUG	MSRA	-0.6176
UAUACUUAAUUGCAACUGG	GPAT3	-0.5627
UUUAUAGGCAAAGACAAUG	PLXDC1	0.4674
UCUCGAAAAGCUUAGACUC	CAMK1G	0.08477

Data taken from PubChem BioAssay AID1159506, deposited by NCATS (2015).